Assay results: patent publication US20120095193A1
Results are given in words; binding and its absence hold for the method and conditions named. Some binding calls cover weakened binding; strength is not graded here. Blank lines part the entries; values can stand above or below the binder they belong to.

Amino acid sequences for entries named in this document (tags omitted). A change or cut given only in a name is not applied to a line headed by its entry.
UniProt Q9UNA0: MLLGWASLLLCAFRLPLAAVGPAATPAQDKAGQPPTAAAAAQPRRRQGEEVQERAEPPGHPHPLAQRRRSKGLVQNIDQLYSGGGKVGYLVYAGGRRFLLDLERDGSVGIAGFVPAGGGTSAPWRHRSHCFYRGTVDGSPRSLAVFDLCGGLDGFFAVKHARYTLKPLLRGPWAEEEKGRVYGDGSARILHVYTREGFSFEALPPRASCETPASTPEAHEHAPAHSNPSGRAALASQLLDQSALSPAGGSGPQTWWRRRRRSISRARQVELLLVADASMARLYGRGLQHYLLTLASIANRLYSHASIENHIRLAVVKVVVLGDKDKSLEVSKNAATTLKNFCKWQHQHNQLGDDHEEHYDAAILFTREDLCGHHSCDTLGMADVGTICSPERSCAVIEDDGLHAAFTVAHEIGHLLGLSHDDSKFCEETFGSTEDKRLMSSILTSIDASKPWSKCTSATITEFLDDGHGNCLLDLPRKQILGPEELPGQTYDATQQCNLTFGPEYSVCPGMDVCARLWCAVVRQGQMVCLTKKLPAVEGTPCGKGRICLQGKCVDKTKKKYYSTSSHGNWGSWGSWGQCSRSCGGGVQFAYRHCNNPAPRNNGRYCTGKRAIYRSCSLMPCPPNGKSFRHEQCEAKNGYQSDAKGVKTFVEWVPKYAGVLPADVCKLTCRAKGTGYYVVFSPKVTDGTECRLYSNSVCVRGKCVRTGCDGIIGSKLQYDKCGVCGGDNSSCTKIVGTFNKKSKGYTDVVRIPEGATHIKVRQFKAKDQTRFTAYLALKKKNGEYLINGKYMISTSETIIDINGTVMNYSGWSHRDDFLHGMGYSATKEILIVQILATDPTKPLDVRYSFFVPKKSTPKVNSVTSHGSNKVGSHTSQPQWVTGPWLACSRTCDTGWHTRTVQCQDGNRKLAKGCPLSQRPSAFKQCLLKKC

How the values were obtained:
rat ADAMTS5 (rat) = molecular target: T1, rat ADAMTS5 (rat) (UniProt Q6TY19); assay: orthologue cross-reactivity, method not specified, data not shown
T1 sequence: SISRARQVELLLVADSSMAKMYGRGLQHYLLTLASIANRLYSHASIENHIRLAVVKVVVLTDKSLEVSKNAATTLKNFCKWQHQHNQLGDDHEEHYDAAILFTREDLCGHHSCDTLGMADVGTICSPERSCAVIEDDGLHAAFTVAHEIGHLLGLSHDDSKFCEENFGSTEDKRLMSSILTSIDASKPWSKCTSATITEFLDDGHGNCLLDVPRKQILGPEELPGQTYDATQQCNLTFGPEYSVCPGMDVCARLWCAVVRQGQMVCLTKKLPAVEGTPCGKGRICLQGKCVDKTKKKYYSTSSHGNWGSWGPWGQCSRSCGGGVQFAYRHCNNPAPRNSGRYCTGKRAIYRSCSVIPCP

canine ADAMTS5 (canine) = assay: orthologue cross-reactivity, binding/neutralization grade
[1] = molecular target: cynomolgus monkey ADAMTS5 (cynomolgus monkey); assay: as above
mouse ADAMTS5 (mouse) = molecular target: T2, mouse ADAMTS5 (mouse) (UniProt Q9R001); assay: as above
T2 sequence (looked up): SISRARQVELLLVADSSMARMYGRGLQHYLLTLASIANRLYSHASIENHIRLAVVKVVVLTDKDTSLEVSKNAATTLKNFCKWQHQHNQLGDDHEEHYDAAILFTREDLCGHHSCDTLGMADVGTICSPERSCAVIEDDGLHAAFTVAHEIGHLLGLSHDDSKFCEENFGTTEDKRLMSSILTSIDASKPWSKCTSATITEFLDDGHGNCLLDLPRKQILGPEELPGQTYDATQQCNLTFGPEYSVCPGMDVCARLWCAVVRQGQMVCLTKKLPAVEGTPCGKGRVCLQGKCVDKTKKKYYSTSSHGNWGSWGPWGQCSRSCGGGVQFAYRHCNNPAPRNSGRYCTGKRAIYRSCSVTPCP

human ADAMTS5 (human) = human ADAMTS5 (human) (UniProt Q9UNA0); assay: ELISA on coated recombinant human ADAMTS5 (0.2 ug/ml), antibody in culture supernatant, anti human kappa peroxidase, absorbance 490 nm

B1: 12F4.1H7 (antibody, IgG2, V domains shown)
VH: EVKLEESGGGLVQPGGSMKLSCTASGFTFSDAWMDWVRQSPEKGLEWVAEIRHKANDHAIFYDESVKGRFTISRDDSKNIVYLQMNSLRPEDTGIYYCTSPFAYWGQGTLVTVSA
VL: DIVMTQSQKFMSVTVGDRVSITCKASQSVGTTIVWYQQKPGQSPKLLIYSASNRHTGVPDRFTGSGSGTDFILTINNVQSEDLADYFCQQYTSYPFTFGSGTKLEIKR
- binding (rat ADAMTS5 (rat)): binds
- binding (canine ADAMTS5 (canine)): binds
- binding [1]: binds
- binding (mouse ADAMTS5 (mouse)): binds

B2: 2D3.1D4 (antibody, V domains shown)
VH: EVKLEESGGGLVQPGGSMKLSCAASGITFSDAWMDWVRQSPEKGLEWVADIRNTANNHATFYAESVKGRFTISRDDSKSTVYLQMNTLRPEDTGIYYCTSPFAYWGQGTLVTVSA
VL: DIVMTQSQKFMSTTVGDRVSITCKASQNVGTAVVWFQQKPGQSPKLLIYSASNRYTRVPDRFTGSGSGTDFTLTISNVQSEDLADYFCQQYVNYPFTFGSGTKLEIKR
- binding (rat ADAMTS5 (rat)): binds
- binding (canine ADAMTS5 (canine)): binds
- binding [1]: binds
- binding (mouse ADAMTS5 (mouse)): binds

B3: 5F10.1H6 (antibody, V domains shown)
VH: EVKLEESGGGLVQPGGSMKLSCAASGFTFSDAWMDWVRQSPEKGLEWVAEIRHKANDHAIFYDESVKGRFTISRDDSKSIVYLQMNSLRPEDTGIYYCTSPFAYWGQGTLVTVSA
VL: DIVMTQSQRFMSVTVGDRVSITCKASQSVGTTIVWYQQKPGQSPKLLIYSASTRYTGVPDRFTGGGSGTDFILTINNVQSEDLADYFCQQYSSYPFTFGSGTKLEIKR
- binding (rat ADAMTS5 (rat)): binds
- binding (canine ADAMTS5 (canine)): binds
- binding [1]: binds
- binding (mouse ADAMTS5 (mouse)): binds

B4: 3A12.1D7 (antibody, V domains shown)
VH: EVKFEESGGGLVQPGGSMKLSCAASGFIFSDAWMDWVRQSPEKGLEWVAEIRHKANDYAIFYDESVKGRFTISRDDSKSIVYLQMNNLRPEDTGIYYCTSPFAYWGQGTLVTVSA
VL: DIVMTQSQKFMSVTVGDRVSITCKASQSVGTTIVWYQQKPGQSPKLLIYSASNRHTGVPDRFTGSGSGTDFILTISNVQSEDLADYFCQQYSSYPFTFGSGTKLEIKR
- binding (rat ADAMTS5 (rat)): binds
- binding (canine ADAMTS5 (canine)): binds
- binding [1]: binds
- binding (mouse ADAMTS5 (mouse)): binds

B8: BPC1638 (antibody, human IgG1, kappa, V domains shown)
VH: EVQLVESGGGLVQPGGSLRLSCAASGFTSSDAWMDWVRQAPGKGLEWVAEIRNKANNHARHYAESVKGRFTISRDDAKNSLYLQMNSLRAEDTAVYYCTRTYYYGSSYGYCDVWGQGTLVTVSS
VL: DIQMTQSPSSLSASVGDRVTITCRTSENIYSYLAWYQQKPGKAPKLLIYNAKTLAEGVPSRFSGSGSGTDFTLTISSLQPEDFATYYCQHHYGTPWTFGQGTKLEIKR
- binding (human ADAMTS5 (human)): binds

B12: BPC1640 (antibody, human IgG1, kappa, V domains shown)
VH: EVQLVESGGGLVQPGGSLRLSCAASGFTSSDAWMDWVRQAPGKGLEWVAEIRNKANNHARHYAESVKGRFTISRDDAKNSVYLQMNSLRAEDTAVYYCTRTYYYGSSYGYCDVWGQGTLVTVSS
VL: DIQMTQSPSSLSASVGDRVTITCRTSENIYSYLAWYQQKPGKAPKLLIYNAKTLAEGVPSRFSGSGSGTDFTLTISSLQPEDFATYYCQHHYGTPWTFGQGTKLEIKR
- binding (human ADAMTS5 (human)): binds

B14: BPC1653 (antibody, human IgG1, kappa, V domains shown)
VH: EVQLVESGGGLVQPGGSLRLSCAASGFTSSDAWMDWVRQAPGKGLEWVAEIRNKANNHARHYAESVKGRFTISRDNAKNSVYLQMNSLRAEDTAVYYCTRTYYYGSSYGYCDVWGQGTLVTVSS
VL: DIQMTQSPSSLSASVGDRVTITCRTSENIYSYLAWYQQKPGKAPQLLVYNAKTLAEGVPSRFSGSGSGTDFTLTISSLQPEDFATYYCQHHYGTPWTFGQGTKLEIKR
- binding (human ADAMTS5 (human)): binds

B17: BPC1649 (antibody, human IgG1, kappa, V domains shown)
VH: EVQLVESGGGLVQPGGSLRLSCAASGFTFSDAWMDWVRQAPGKGLEWVAEIRNKANNHARHYAESVKGRFTISRDNAKNSLYLQMNSLRAEDTAVYYCTRTYYYGSSYGYCDVWGQGTLVTVSS
VL: DIQMTQSPSSLSASVGDRVTITCRTSENIYSYLAWYQQKPGKAPQLLVYNAKTLAEGVPSRFSGSGSGTDFTLTISSLQPEDFATYYCQHHYGTPWTFGQGTKLEIKR
- binding (human ADAMTS5 (human)): binds

B18: BPC1639 (antibody, human IgG1, kappa, V domains shown)
VH: EVQLVESGGGLVQPGGSLRLSCAASGFTSSDAWMDWVRQAPGKGLEWVAEIRNKANNHARHYAESVKGRFTISRDNAKNSVYLQMNSLRAEDTAVYYCTRTYYYGSSYGYCDVWGQGTLVTVSS
VL: DIQMTQSPSSLSASVGDRVTITCRTSENIYSYLAWYQQKPGKAPKLLIYNAKTLAEGVPSRFSGSGSGTDFTLTISSLQPEDFATYYCQHHYGTPWTFGQGTKLEIKR
- binding (human ADAMTS5 (human)): binds

Second part, the binder after the results:

- binding (human ADAMTS5 (human)): binds
B5: BPC1648 (antibody, human IgG1, kappa, V domains shown)
VH: EVQLVESGGGLVQPGGSLRLSCAASGFTFSDAWMDWVRQAPGKGLEWVAEIRNKANNHARHYAESVKGRFTISRDNAKNSLYLQMNSLRAEDTAVYYCARTYYYGSSYGYCDVWGQGTLVTVSS
VL: DIQMTQSPSSLSASVGDRVTITCRTSENIYSYLAWYQQKPGKAPQLLVYNAKTLAEGVPSRFSGSGSGTDFTLTISSLQPEDFATYYCQHHYGTPWTFGQGTKLEIKR

- binding (human ADAMTS5 (human)): binds
B6: BPC1651 (antibody, human IgG1, kappa, V domains shown)
VH: EVQLVESGGGLVQPGGSLRLSCAASGFTSSDAWMDWVRQAPGKGLEWVAEIRNKANNHARHYAESVKGRFTISRDNAKNSLYLQMNSLRAEDTAVYYCTRTYYYGSSYGYCDVWGQGTLVTVSS
VL: DIQMTQSPSSLSASVGDRVTITCRTSENIYSYLAWYQQKPGKAPQLLVYNAKTLAEGVPSRFSGSGSGTDFTLTISSLQPEDFATYYCQHHYGTPWTFGQGTKLEIKR

- binding (human ADAMTS5 (human)): binds
B7: BPC1636 (antibody, human IgG1, kappa, V domains shown)
VH: EVQLVESGGGLVQPGGSLRLSCAASGFTSSDAWMDWVRQAPGKGLEWVAEIRNKANNHARHYAESVKGRFTISRDNAKNSLYLQMNSLRAEDTAVYYCARTYYYGSSYGYCDVWGQGTLVTVSS
VL: DIQMTQSPSSLSASVGDRVTITCRTSENIYSYLAWYQQKPGKAPKLLIYNAKTLAEGVPSRFSGSGSGTDFTLTISSLQPEDFATYYCQHHYGTPWTFGQGTKLEIKR

- binding (human ADAMTS5 (human)): binds
B9: BPC1654 (antibody, human IgG1, kappa, V domains shown)
VH: EVQLVESGGGLVQPGGSLRLSCAASGFTSSDAWMDWVRQAPGKGLEWVAEIRNKANNHARHYAESVKGRFTISRDDAKNSVYLQMNSLRAEDTAVYYCTRTYYYGSSYGYCDVWGQGTLVTVSS
VL: DIQMTQSPSSLSASVGDRVTITCRTSENIYSYLAWYQQKPGKAPQLLVYNAKTLAEGVPSRFSGSGSGTDFTLTISSLQPEDFATYYCQHHYGTPWTFGQGTKLEIKR

- binding (human ADAMTS5 (human)): binds
B10: BPC1652 (antibody, human IgG1, kappa, V domains shown)
VH: EVQLVESGGGLVQPGGSLRLSCAASGFTSSDAWMDWVRQAPGKGLEWVAEIRNKANNHARHYAESVKGRFTISRDDAKNSLYLQMNSLRAEDTAVYYCTRTYYYGSSYGYCDVWGQGTLVTVSS
VL: DIQMTQSPSSLSASVGDRVTITCRTSENIYSYLAWYQQKPGKAPQLLVYNAKTLAEGVPSRFSGSGSGTDFTLTISSLQPEDFATYYCQHHYGTPWTFGQGTKLEIKR

- binding (human ADAMTS5 (human)): binds
B11: BPC1635 (antibody, human IgG1, kappa, V domains shown)
VH: EVQLVESGGGLVQPGGSLRLSCAASGFTFSDAWMDWVRQAPGKGLEWVAEIRNKANNHARHYAESVKGRFTISRDNAKNSLYLQMNSLRAEDTAVYYCTRTYYYGSSYGYCDVWGQGTLVTVSS
VL: DIQMTQSPSSLSASVGDRVTITCRTSENIYSYLAWYQQKPGKAPKLLIYNAKTLAEGVPSRFSGSGSGTDFTLTISSLQPEDFATYYCQHHYGTPWTFGQGTKLEIKR

- binding (human ADAMTS5 (human)): binds
B13: BPC1641 (antibody, human IgG1, kappa, V domains shown)
VH: EVQLVESGGGLVQPGGSLRLSCAASGFTFSDAWMDWVRQAPGKGLEWVAEIRNKANNHARHYAESVKGRFTISRDNAKNSLYLQMNSLRAEDTAVYYCARTYYYGSSYGYCDVWGQGTLVTVSS
VL: DIQMTQSPSSLSASVGDRVTITCRTSENIYSYLAWYQQKPGKAPKLLVYNAKTLAEGVPSRFSGSGSGTDFTLTISSLQPEDFATYYCQHHYGTPWTFGQGTKLEIKR

- binding (human ADAMTS5 (human)): binds
B15: BPC1637 (antibody, human IgG1, kappa, V domains shown)
VH: EVQLVESGGGLVQPGGSLRLSCAASGFTSSDAWMDWVRQAPGKGLEWVAEIRNKANNHARHYAESVKGRFTISRDNAKNSLYLQMNSLRAEDTAVYYCTRTYYYGSSYGYCDVWGQGTLVTVSS
VL: DIQMTQSPSSLSASVGDRVTITCRTSENIYSYLAWYQQKPGKAPKLLIYNAKTLAEGVPSRFSGSGSGTDFTLTISSLQPEDFATYYCQHHYGTPWTFGQGTKLEIKR

- binding (human ADAMTS5 (human)): binds
B16: BPC1650 (antibody, human IgG1, kappa, V domains shown)
VH: EVQLVESGGGLVQPGGSLRLSCAASGFTSSDAWMDWVRQAPGKGLEWVAEIRNKANNHARHYAESVKGRFTISRDNAKNSLYLQMNSLRAEDTAVYYCARTYYYGSSYGYCDVWGQGTLVTVSS
VL: DIQMTQSPSSLSASVGDRVTITCRTSENIYSYLAWYQQKPGKAPQLLVYNAKTLAEGVPSRFSGSGSGTDFTLTISSLQPEDFATYYCQHHYGTPWTFGQGTKLEIKR
